Measurements taken from PubChem BioAssay AID1296 (Columbia University Molecular Screening Center, 2008).
Out of some 130,000 compounds screened, about 1,000 (0.77%) were called active. The inconclusive results got no clear call from the source; some entries with a clear call stand among them for comparison.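 Rule for the calls: active = activation at 2 µM above a set limit, confirmed on inspection of the cell images; inconclusive = above the set limit but not confirmed on image inspection; inactive = the rest.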

Assay: activators of insulin promoter-driven GFP, primary screen, imaging, TRM-6 cells (human fetal islet line), eGFP reporter, cell count (AID 1296;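 note: share of cells whose green reporter signal exceeds an intensity cutoff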)
Conditions: at 2 µM, hits give high values
Procedure, shortened: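 Assay system: TRM-6 human fetal islet cells, insulin promoter–eGFP reporter; Also added: 0.75 µM tamoxifen as reporter inducer; Schedule: 15 h tamoxifen pre-treatment, 48 h compound treatment at 37 °C; Signal: fixed-cell fluorescence microscopy, eGFP plus Hoechst; Read-out: percent activation from GFP-positive cell fraction; Control set: stimulated and unstimulated wells.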

SMILES	activation
Cn1c(N2CCNCC2)nc2ccccc21	inconclusive: 477%
CN[C@H]1C[C@H]2O[C@@](C)([C@H]1OC)n1c3ccccc3c3c4c(c5c6ccccc6n2c5c31)C(=O)NC4	inconclusive: 335% [cytotoxic]
CSc1ncc(/C=C2/C(=O)NC(=O)N(c3ccc(Cl)cc3)C2=O)cn1	active: 260%
COC(=O)CNC(=O)c1cn(CCC#N)nc1-c1ccc(F)cc1	inconclusive: 262%
COC(=NC1CCCC1)C(O)c1c[nH]c2ccccc12 (stereo unspecified)	active: 667%
COc1cccc(C2(O)CCN(CC(=O)Nc3nc(C)cs3)CC2)c1	inconclusive: 426% [cytotoxic]
Cc1nnc(SCc2nc3ccccc3c(=O)n2-c2ccccc2Cl)n1N	inconclusive: 493%
O=C(O)c1ccc(Cl)nc1	inactive: 3.33%
O=C(CNS(=O)(=O)c1cccs1)N1CCC2(CC1)OCCO2	inactive: 0%
COc1ccc(N=C2SCCCN2C)cc1	active: 512%
CC(c1ccccc1)n1cncc1C(=O)O (stereo unspecified)	inconclusive: 444%
CC1=C(C(=O)N2CCC3(CC2)OCCO3)C2(CCC(C)CC2)OC1=O (stereo unspecified)	inactive: -72.8%
Cc1cc(OCC(=O)O)c2c3c(c(=O)oc2c1)CCCC3	inconclusive: 454%
CCCNS(=O)(=O)c1ccc(OCC(=O)N2CCN(C)CC2)cc1	inconclusive: 438%
COc1c(C)cc(C(=O)C2CCCN(Cc3ccccn3)C2)cc1C (stereo unspecified)	active: 319%
CN1/C(=C\C=C\C2=[N+](C)c3ccc4ccccc4c3C2(C)C)C(C)(C)c2ccccc21	active: 151%
Brc1ccc(C2N3CCCN23)cc1 (stereo unspecified)	active: 508%
O=C(c1ccc2c(c1)ncn2-c1ccc(F)cc1F)N1CCC2(CC1)OCCO2	active: 486%
Cc1c(C=O)c2ccccc2n1Cc1ccc([N+](=O)[O-])cc1	inactive: 8.82%
Cc1ccc(CN2C(=O)CN=C(c3ccccc3)c3ccccc32)cc1	inactive: 0%
CN1CCN(c2c(N)c(=O)oc3ccccc23)CC1	inactive: -6.45%
COc1ccc(CCC(=O)N2CCC3(CC2)OCCO3)cc1	inconclusive: 480%
COc1cccc(OC)c1C1=NCC(=O)Nc2c1oc1ccc(Br)cc21	inconclusive: 430% [cytotoxic]
CC(C)CCC1(CN2CCCC2=O)C(=O)NC(=O)NC1=O	inactive: -8.57%
CC(C)NS(=O)(=O)c1ccc(OCC(=O)N2CCN(Cc3ccc4c(c3)OCO4)CC2)c(Cl)c1	inactive: 7.14%
OC(c1ccccc1)(c1ccccc1)C1CCNCC1	inconclusive: 400%

Copied from the list.
activation with CC(C)NS(=O)(=O)c1ccc(OCC(=O)N2CCN(Cc3ccc4c(c3)OCO4)CC2)c(Cl)c1 is entered as inactive: 7.14%
activation with COc1cccc(C2(O)CCN(CC(=O)Nc3nc(C)cs3)CC2)c1 is entered as inconclusive: 426% [cytotoxic]
activation with CC(C)CCC1(CN2CCCC2=O)C(=O)NC(=O)NC1=O is entered as inactive: -8.57%
activation with COc1ccc(N=C2SCCCN2C)cc1 is entered as active: 512%
activation with COc1ccc(CCC(=O)N2CCC3(CC2)OCCO3)cc1 is entered as inconclusive: 480%
activation with COC(=O)CNC(=O)c1cn(CCC#N)nc1-c1ccc(F)cc1 is entered as inconclusive: 262%

The list continues.

SMILES	activation
CC(=NCCCN1CCOCC1)c1c(O)[nH]c(=O)[nH]c1=O	inactive: 0%
CC(=O)c1c(O)n(C2CCCCCC2)c(=O)[nH]c1=O	active: 146%
O=c1cc(C(F)(F)F)c2cc3c4c(c2o1)CCCN4CCC3	active: 164%
CC(Cc1ccccc1)NC(=O)/C=C/C(=O)O (stereo unspecified)	inactive: -77.8%
CCN1CCN(C(=O)Cc2coc3cc(C)cc(C)c23)CC1	inconclusive: 450%
Cc1nc2cc(C(F)(F)F)ccc2n1C1CCN(Cc2nnnn2CCc2ccccc2)CC1	inconclusive: 412%
Cc1ccc(Cc2c(C)nc3nc(SCC(=O)N4CCC5(CC4)OCCO5)nn3c2C)cc1	active: 125%
CCOC(=O)c1c(N)n(CCN2CCOCC2)c2nc3ccccc3nc12	inconclusive: 517%
CN(C)C(=S)SSC(=S)N(C)C	inactive: -100%
CC1CCC/C=C/C2CC(O)CC2C(O)/C=C/C(=O)O1 (stereo unspecified)	active: 228%
c1ccc(CC(NCc2ccco2)c2ccccc2)cc1 (stereo unspecified)	inconclusive: 183%
C(#CCN1CCOCC1)COCC#Cc1ccccc1	active: 79%
c1ccc(C2CC3CC4(CCCC4)N2O3)cc1 (stereo unspecified)	inconclusive: 136%
N#Cc1ccc(OCC(=O)N2CCN(Cc3ccc4c(c3)OCO4)CC2)cc1	inactive: 0%
O=C(NC1CN2CCC1CC2)c1cc(Cl)c([N+](=O)[O-])c2nc[nH]c12 (stereo unspecified)	inconclusive: 250%
Cc1c2ccncc2c(C)c2c1[nH]c1ccccc12	active: 354%
O=C(CN1CC(c2ccccc2)CC1=O)Nc1ccc(F)cc1 (stereo unspecified)	inactive: -37.5%
O=C1CCN(C(=O)C(Cl)Cl)N1	inactive: -7.32%
Cc1ccc2c(c1)C1CN(C)CCC1N2C(=O)c1cn(-c2ccccc2)nc1-c1ccccc1 (stereo unspecified)	inconclusive: 150%
O=C(Nc1ccc(Cl)cc1C(=O)c1ccccc1Cl)c1ccco1	active: 230%
O=C1NC(=O)C(CCc2ccccn2)(Cc2ccc3c(c2)OCO3)C(=O)N1CCc1ccccc1 (stereo unspecified)	inconclusive: 564%
CCN1CC2(COC(=O)c3ccccc3N)CCC(OC)C34C5CC6C(OC)CC(O)(C5C6OC)C(O)(C(OC)C23)C14 (stereo unspecified)	inactive: 6.67%
CC1=CC(=C2C(=O)NC(=S)NC2=O)C=C(C(F)(F)F)N1Cc1ccccc1	inconclusive: 407% [cytotoxic]
CC(C)N1CCC2(CC1)NC(CO)(CO)CO2	inactive: -6.45%
C[C@@H]1O[C@@H](O[C@H]2C[C@@H](O)[C@]3(CO)[C@H]4[C@H](O)C[C@]5(C)[C@@H](C6=CC(=O)OC6)CC[C@]5(O)[C@@H]4CC[C@]3(O)C2)[C@H](O)[C@H](O)[C@H]1O	inconclusive: 354% [cytotoxic]
O=C(Cc1ccccc1)N1CCN(CC2CC=CCC2)CC1 (stereo unspecified)	inactive: -5.56%

SMILES	activation
O=c1c2ccccc2nc(CSc2ncnc3nc[nH]c23)n1-c1ccccc1Cl	inconclusive: 406%
C=C1N2CCC(CC2)C1(O)c1ccc(C)cc1 (stereo unspecified)	inconclusive: 75%
CN(C)CC1CSCCC1(O)c1ccccc1 (stereo unspecified)	inconclusive: 146%
O=C(Cn1ncc2c3ccccc3n(Cc3ccc(F)cc3)c2c1=O)N1CCC2(CC1)OCCO2	inconclusive: 417%
CC1(C)C[C@H]2C=C(C=O)[C@]3(C=O)C[C@]3(C)[C@H]2C1	inconclusive: 277% [cytotoxic]
Clc1ccc(CNC2CN3CCC2CC3)cc1 (stereo unspecified)	inconclusive: 375%
Cc1ccc2c(c1)C(c1ccccc1)NCC(=O)N2 (stereo unspecified)	inconclusive: 162%
C1=C(c2c[nH]c3ccccc23)CCNC1	inconclusive: 456%
COc1ccc(OCC(=O)N2CCN(Cc3nc4cc([N+](=O)[O-])ccc4n3C)CC2)cc1	inconclusive: 233%
O=C1NC(=O)C(=Cc2ccc(-c3cc(Cl)ccc3[N+](=O)[O-])o2)C(=O)N1	inconclusive: 273%
CN1CCN(C(=O)COc2ccc(S(=O)(=O)NCc3ccccc3)cc2Cl)CC1	inconclusive: 106%
COCCCN1CCN(c2nnc3n2-c2sc(Br)cc2C(c2ccccc2Cl)=NC3)CC1	inconclusive: 75.7%
COc1ccc(OCC(=O)Nc2ccc(Cl)cc2C(=O)c2ccccc2)cc1	inconclusive: 133%
CCN(CC)CCCC(C)N=C(c1ccccc1)c1c(O)n(C)c(=O)n(C)c1=O (stereo unspecified)	inconclusive: 127%
Cc1c(N=Cc2c(O)n(CCc3ccc(F)cc3)c(=O)[nH]c2=O)c(=O)n(-c2ccccc2)n1C	active: 400%
CCOC(=O)c1c(C)c(P(=S)(N2CCOCC2)N2CCOCC2)n(C)c1C	inactive: 9.09%
C[N+]1(C)CCOC(O)(c2ccc(-c3ccc(C4(O)C[N+](C)(C)CCO4)cc3)cc2)C1 (stereo unspecified)	inactive: -9.52%
CCCCc1nc2ccccc2c(=O)n1-c1ccc(Cl)cc1[N+](=O)[O-]	inactive: -6.67%
CN1C2CCC1/C(=C/c1ccccn1)C(=O)/C2=C\c1ccccn1	inconclusive: 669% [cytotoxic]
CC(=O)OC(C)(C)/C=C/C(=O)[C@](C)(O)[C@H]1[C@H](O)C[C@@]2(C)[C@@H]3CC=C4[C@H](C[C@H](O)C(=O)C4(C)C)[C@]3(C)C(=O)C[C@]12C	inconclusive: 400% [cytotoxic]
Clc1cnc(Oc2ccc(Oc3ncc(Cl)cc3Cl)cc2)c(Cl)c1	inactive: -2.78%
C[C@H]1CCC/C=C/C2C[C@H](O)CC2[C@H](O)/C=C/C(=O)O1 (stereo partly specified)	inconclusive: 304%
CC1CN(O)C2CCc3nonc3C12O (stereo unspecified)	inactive: -9.09%
Nc1ccc(Cl)cc1C(=O)c1ccccc1Cl	active: 433%
